Data taken from publication PMC5430717.
These are yes or no findings as the source states them, for the method shown. In cells and extracts the contact can be indirect. Some binding calls cover weakened binding; strength is not graded here. Each block holds one molecule with its values, some of them ahead of it.

The chains behind the UniProt entries cited, without tags or fusion partners.
UniProt P42224: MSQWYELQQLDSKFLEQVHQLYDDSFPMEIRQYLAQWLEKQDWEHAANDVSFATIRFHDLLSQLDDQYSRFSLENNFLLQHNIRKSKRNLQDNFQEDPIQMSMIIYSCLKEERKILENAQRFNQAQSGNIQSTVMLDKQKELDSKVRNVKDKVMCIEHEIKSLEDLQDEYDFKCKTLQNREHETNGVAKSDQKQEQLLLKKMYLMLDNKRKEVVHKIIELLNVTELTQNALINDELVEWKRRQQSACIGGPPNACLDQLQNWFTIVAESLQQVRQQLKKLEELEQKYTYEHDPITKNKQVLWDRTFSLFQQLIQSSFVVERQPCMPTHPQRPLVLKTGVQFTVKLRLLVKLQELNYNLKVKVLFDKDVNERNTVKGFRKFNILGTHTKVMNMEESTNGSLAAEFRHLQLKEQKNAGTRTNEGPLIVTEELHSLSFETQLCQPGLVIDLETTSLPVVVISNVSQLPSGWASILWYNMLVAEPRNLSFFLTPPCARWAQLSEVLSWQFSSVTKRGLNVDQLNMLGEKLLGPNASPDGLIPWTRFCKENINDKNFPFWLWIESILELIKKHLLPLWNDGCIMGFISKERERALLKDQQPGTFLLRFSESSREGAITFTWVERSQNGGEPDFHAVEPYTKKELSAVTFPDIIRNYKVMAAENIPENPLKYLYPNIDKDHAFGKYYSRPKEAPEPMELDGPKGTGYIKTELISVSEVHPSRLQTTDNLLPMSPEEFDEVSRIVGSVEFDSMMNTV
UniProt O14508: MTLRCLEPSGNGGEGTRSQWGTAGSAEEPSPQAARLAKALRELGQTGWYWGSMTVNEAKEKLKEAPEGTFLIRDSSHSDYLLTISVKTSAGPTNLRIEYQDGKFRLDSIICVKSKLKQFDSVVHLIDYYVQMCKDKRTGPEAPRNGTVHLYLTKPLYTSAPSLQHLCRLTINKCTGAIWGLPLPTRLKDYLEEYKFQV

Tests used:
[1] = biological target: T1, NOD1 (UniProt Q9Y239); experiment: co-IP; co-immunoprecipitation; cells, bait and antibodies not told in the main text (Supplementary Fig. S5)
T1 sequence: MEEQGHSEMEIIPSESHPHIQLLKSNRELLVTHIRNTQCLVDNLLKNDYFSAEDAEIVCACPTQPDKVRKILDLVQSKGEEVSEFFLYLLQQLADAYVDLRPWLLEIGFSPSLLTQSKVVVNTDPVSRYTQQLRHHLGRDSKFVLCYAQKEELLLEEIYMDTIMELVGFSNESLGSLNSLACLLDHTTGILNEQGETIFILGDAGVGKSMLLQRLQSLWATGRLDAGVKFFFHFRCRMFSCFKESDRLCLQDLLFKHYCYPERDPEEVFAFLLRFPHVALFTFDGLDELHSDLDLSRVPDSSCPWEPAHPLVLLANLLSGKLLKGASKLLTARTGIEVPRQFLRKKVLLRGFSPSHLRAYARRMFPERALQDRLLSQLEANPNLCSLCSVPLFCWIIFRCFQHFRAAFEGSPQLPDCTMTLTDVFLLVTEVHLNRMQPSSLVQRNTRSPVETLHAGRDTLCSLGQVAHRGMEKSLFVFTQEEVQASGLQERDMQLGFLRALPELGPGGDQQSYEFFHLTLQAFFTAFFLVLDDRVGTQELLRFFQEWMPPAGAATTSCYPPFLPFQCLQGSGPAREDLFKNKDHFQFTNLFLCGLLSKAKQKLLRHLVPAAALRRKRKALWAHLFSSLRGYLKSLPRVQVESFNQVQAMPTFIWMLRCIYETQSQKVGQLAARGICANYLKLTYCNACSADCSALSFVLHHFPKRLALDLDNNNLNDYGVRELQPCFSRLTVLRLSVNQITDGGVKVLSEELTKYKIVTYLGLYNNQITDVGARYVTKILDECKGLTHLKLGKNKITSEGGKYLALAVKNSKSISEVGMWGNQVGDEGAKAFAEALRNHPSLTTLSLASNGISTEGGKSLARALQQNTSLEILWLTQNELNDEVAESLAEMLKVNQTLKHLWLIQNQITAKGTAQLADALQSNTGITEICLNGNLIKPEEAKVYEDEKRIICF

[2] = biological target: T2, Slingshot Homolog 1 (SSH1) (UniProt Q8WYL5); experiment: as above
T2 sequence: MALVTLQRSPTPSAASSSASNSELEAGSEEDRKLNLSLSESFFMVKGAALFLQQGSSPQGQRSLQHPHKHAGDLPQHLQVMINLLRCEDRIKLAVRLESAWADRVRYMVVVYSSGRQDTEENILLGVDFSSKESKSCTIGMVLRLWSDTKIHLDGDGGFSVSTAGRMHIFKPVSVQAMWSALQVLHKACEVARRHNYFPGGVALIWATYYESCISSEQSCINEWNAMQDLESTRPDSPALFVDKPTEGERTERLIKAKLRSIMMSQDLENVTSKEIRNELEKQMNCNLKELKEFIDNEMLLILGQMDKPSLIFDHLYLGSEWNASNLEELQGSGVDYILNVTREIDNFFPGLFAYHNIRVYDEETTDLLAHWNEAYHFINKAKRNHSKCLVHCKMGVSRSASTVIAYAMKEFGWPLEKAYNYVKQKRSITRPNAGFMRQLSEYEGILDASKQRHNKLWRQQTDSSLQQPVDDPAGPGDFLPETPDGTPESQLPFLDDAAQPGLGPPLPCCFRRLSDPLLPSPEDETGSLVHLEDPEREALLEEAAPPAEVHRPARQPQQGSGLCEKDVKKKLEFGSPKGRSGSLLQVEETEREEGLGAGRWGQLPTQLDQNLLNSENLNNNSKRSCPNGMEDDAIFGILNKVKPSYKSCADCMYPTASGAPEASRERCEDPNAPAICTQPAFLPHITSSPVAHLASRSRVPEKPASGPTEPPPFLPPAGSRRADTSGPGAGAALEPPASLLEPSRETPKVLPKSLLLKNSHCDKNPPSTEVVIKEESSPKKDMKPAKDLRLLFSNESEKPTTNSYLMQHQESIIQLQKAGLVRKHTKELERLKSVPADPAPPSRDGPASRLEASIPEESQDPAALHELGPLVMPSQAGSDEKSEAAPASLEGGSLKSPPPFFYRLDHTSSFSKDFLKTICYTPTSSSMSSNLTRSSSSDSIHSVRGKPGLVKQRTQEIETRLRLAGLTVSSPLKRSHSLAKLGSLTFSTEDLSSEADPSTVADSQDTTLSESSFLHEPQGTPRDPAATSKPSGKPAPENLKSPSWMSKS

[3] = biological target: STAT1 (human (endogenous in HEK293T)) (UniProt P42224); experiment: co-IP; co-immunoprecipitation in HEK293T cells; endogenous STAT1; bait and antibodies not told in the main text (Supplementary Fig. S4)

- binding [1]: binds
- binding [2]: binds
Molecule: SOCS2 (from UniProt O14508 1-198)

- binding [3]: no binding
B1: Slingshot Homolog 1 (SSH1) (enzyme, UniProt Q8WYL5 1-1049)
chain: T2 sequence

- binding [3]: no binding
B2: NOD1 (protein, UniProt Q9Y239 1-953)
chain: T1 sequence
